Measured values from PubChem BioAssay AID1508600 (Functional Genomics Laboratory (NCATS/FGL), 2020).
Screen size: about 53,000 sequences; about 3,700 (7%) were called active.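 Rule for the calls: active = gene knockdowns whose robust z-score for IL-1 alpha signal is at least 2 or at most -2, so actives lie on both sides; inactive = the rest.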 Some of the results follow.

Assay: Components of the Cytosolic LPS Sensing Pathway: Gene Identification via Genome-wide siRNA Screen;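 note: robust z of the log signal after scaling to non-targeting control siRNA wells of the plate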
Settings: RAW264.7 macrophages, IL-1a HTRF, actives lie on both sides, screened at 100 nM (by protocol), cells primed 5 h with Pam3CSK4 first
Outline: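 Three distinct siRNAs per gene were tested singly at 100 nM in RAW264.7 macrophages. Following Pam3CSK4 priming and 24 hour LipidA transfection, IL-1a secretion was read by HTRF.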

z-score, inactive:
GGUUCAGAACAUUAACUCCTT against Rab18 0.432
GCUCCUAGGAACUUGGUUATT against Pacsin2 0.687
GAUGCAGCCGUAGGAAUGGTT against Defa-rs10 0.386
GAUGUAGAGUUUGGAAUGATT against Psmb10 -0.181
GGAAUUCAAUCAGUUUGCUTT against Dysf 1.06
GGGUGCAUCCCAUUCUCUUTT against Pld1 -0.0755
GGAUGGUCGAGUGUUUAUUTT against Sec13 -0.536
GGAAGGUAAAUGUCUGCUCTT against Selenok 0.289
GGCCCUAGAUUUUUAUGGGTT against Pten -0.246
CGACUUAAAUUGCUUGUGATT against Gas1 -0.374
GGAGGUUCGAAGCUCGAUCTT against Trim28 0.924
GCAGGAAGCCCAGUAAAGUTT against Figla 0.44
GCUAGUGCUUUUAACUCUATT against Csprs 1.72
CCCAACAAGAGUAUCUAUGTT against Foxh1 -0.125
GGUUGGUCUAGCAAUCUGUTT against Nit1 0.834
CGGUUUUUUAAUCUACCUATT against Ppp1r7 0.801
GGAGAUCAAAGAUAUCCUCTT against Rps16 -0.133
GGAGAGCUAAAUAAACAAATT against Kitl 0.549
GGCUACUUCUGUACUAGGATT against Gclc -1.05
GGAGAGAAAGGAAAUGUUUTT against Sepsecs 0.203
CCACGAAUUACCUUAAAGUTT against Jade3 0.187
GGUCGUACUAUACCAAAGATT against Scgb2b2 0.487
GCUACCUCUCGUAGUAAAATT against Sgk2 -0.911
GAUACAGACCUUGCUCUUCTT against Olfr714 -0.421
GGAACAAGAACAAGUUGAGTT against Spa17 0.389
GGAAGAGCGAGAGACCUUGTT against Hnf1a -0.295
CCGGAUUGAAGAGUUGUAUTT against Tefm -0.827
GGUUAAACUACAACAGUUGTT against Tmco5 1.04
GCCAAUCGGCAUCUUCCUUTT against Bcar1 -1.71
GGUGAUUGGGAAUUGAAAATT against F3 0.341
GCCAGUCAUUCAGUAAAGUTT against Mysm1 -1.15
GGCUACAUGUGAUUUCUCUTT against Ttc7 -0.272
GCUCCUCGGUCUUUCAUGUTT against Nemp2 -1.82
GGCCCUGAACUGGUUUUGUTT against Osbpl10 -0.119
GGAAGCAGUGGAGAAACCATT against Rfc4 -1.52
GGCAGGUGUAAAAUGUAAATT against Hpgd 0.349
GGAAGUCAAGAUCUCACCUTT against Lrrc25 -0.864
GGACCAUAAGCGACCCAAATT against Lmx1a -1.27
GGCAGGAAUGACUCCUUUUTT against Rtf2 1.27
GGGAGAUGAUUAGUUCAUUTT against Mad1l1 0.654
GGUUUAGAACUGGUAGAGCTT against Asgr1 0.72
GGAAGUCAAGUACUGUAGCTT against Usp16 0.0965
GGCUCUUUUCUCUUUGCUGTT against Gpr157 0.932
GGCAUAACUGAUCAUACGCTT against Foxp3 -0.599
GGGUGUCUAUGAUUCUACATT against Add1 0.292
CCCAAGAGUGAGAUGACCCTT against Snrpd2 -1.46
GCUUCGUGAGCAAAUCCUATT against Ccdc126 0.852
GGUAAUGAAAAGCAUUGAATT against Epha1 1.38
CCUUCAAGUACUUUCUCCGTT against Dcakd 1.22
GGAACAUUCUCUCCUUAUGTT against Ctps -0.168
GCAGGUGAAAAGCAAUCCUTT against Prss27 1.03
GGGUCACCAAUCCCAUCAATT against Nags 0.144
GGAACAGCAUCGUAACUAUTT against Csgalnact1 -0.747
CCACCUAUGAAUUAACACATT against Sdk1 -1.05
GGCUUAGCUUUUGUGAUUCTT against Olfr143 -1.24
GGAAAGUGAUUUUUGGAUCTT against Fpr-rs7 0.0196
GCAUUGUGCUUUUGACAACTT against Abca15 -0.173
GCCGGAGGUUACAGCAAAGTT against Dmrt1 -0.296
GGCAUGAUGAAGCUAUUCGTT against Yipf6 0.0872
GACAGUGAAGGCUUGCCAUTT against 1700019M22Rik -0.45
GGAUGUGCGGAACUUUAAGTT against Ccr7 -0.192
GGUCCAACAUGUCUACCCATT against Rfx3 -1.47
GGCAUCUUCCUUUAAAAAGTT against Gar1 -0.708
GGGAUUACCGUGAUUGAUGTT against Fam78a -1
GGGUGUUCAUAAAUGGUAUTT against Grb2 0.654
GCGAAAUCAUGACAAAUUCTT against Tulp3 0.368
CCCACAAAAUACCAAAUCCTT against Klk1b27 -1.74
GGUUCCUAGGUUUUAGAAATT against Olfr631 0.659
GCAUUACGGCGUGUUCACCTT against Nr2f6 1.58
GCGAACGAAGCAUAAAUGGTT against Mettl1 1.62
GGAGUUGGUGAAGCAGCUUTT against Arhgap25 -0.185
CCCUUAUUGAUUCUUCAAGTT against Ngp 0.342
GGCAAUCCAGGCAAUAUCATT against C1qa -0.808
CCGUAGAGAUCAACAACACTT against Npepl1 0.799
CGAGUUGCUCGUGUUCAGUTT against Ndufa1 0.794
GGAGUUCCACUUUCCAGUUTT against Dbndd2 1.11
GGGUUCUGUUACAAUUCCATT against Defb11 0.921
GGAGUGUGAGGUCCUCUCUTT against Sdsl 1.85
CCAUAUGUCCUGUUUAAGATT against Grik2 0.304
GCCUCAAGCCUACCAUGUUTT against Fadd -0.344
GGAUUUUUUUUCUUGUUGCTT against Fam160a1 0.497
GGACAUCCAGUAUUUUGUGTT against Pstpip2 -0.784
GGGCUGUCAUUAUAGUCCATT against Unc93a -0.378
GGUGUCUGUUUGCCAUCUUTT against Adam39 -0.639
GGAGAAACUUCAACUCUUATT against Resp18 -0.396
GGAAAUGCCAGGAUGGAUCTT against AF366264 0.519
GGAUCUCAUAAAGGAGGCUTT against Prkg1 -0.638
CCAGAGCUAAAAGAAAAGATT against Elovl6 1.02
GGGAAUGUUGACUUGUGUUTT against Itfg2 -0.176
GGGCUGAUAAUGUUAGCUCTT against Olfr161 0.48

An excerpt of the results above:
z-score, inactive:
GCUUCGUGAGCAAAUCCUATT against Ccdc126 0.852
GGUAAUGAAAAGCAUUGAATT against Epha1 1.38
CCUUCAAGUACUUUCUCCGTT against Dcakd 1.22
GGAACAUUCUCUCCUUAUGTT against Ctps -0.168
GCAGGUGAAAAGCAAUCCUTT against Prss27 1.03
GGGUCACCAAUCCCAUCAATT against Nags 0.144
GGAACAGCAUCGUAACUAUTT against Csgalnact1 -0.747
CCACCUAUGAAUUAACACATT against Sdk1 -1.05
GGCUUAGCUUUUGUGAUUCTT against Olfr143 -1.24
GGAAAGUGAUUUUUGGAUCTT against Fpr-rs7 0.0196
GCAUUGUGCUUUUGACAACTT against Abca15 -0.173
GCCGGAGGUUACAGCAAAGTT against Dmrt1 -0.296
GGCAUGAUGAAGCUAUUCGTT against Yipf6 0.0872
GACAGUGAAGGCUUGCCAUTT against 1700019M22Rik -0.45
GGAUGUGCGGAACUUUAAGTT against Ccr7 -0.192
GGUCCAACAUGUCUACCCATT against Rfx3 -1.47
GGCAUCUUCCUUUAAAAAGTT against Gar1 -0.708
GGGAUUACCGUGAUUGAUGTT against Fam78a -1
GGGUGUUCAUAAAUGGUAUTT against Grb2 0.654
GCGAAAUCAUGACAAAUUCTT against Tulp3 0.368
CCCACAAAAUACCAAAUCCTT against Klk1b27 -1.74
GGUUCCUAGGUUUUAGAAATT against Olfr631 0.659

Next part:

z-score, active:
GGAGGGACAUGGAGAUUACTT against Ptpn18 3.15
GCAGCUAAGAAGACCACUATT against Zfp185 2.15
GCCAUGUCAAUCAAUCACUTT against Nucks1 -2.57
GGCUUUAAGAUCACACAAATT against Snrpa 2.09
CCGAGUCUUGAACUAGGCATT against Six2 -2.01
CGCAGUAGCGAAGAAUUACTT against Sel1l3 2.46
GGAAGAUGGCAAUAAUAACTT against Borcs7 -2.26
GCACUAGCAGACUAGGUGATT against Zbtb26 -2.07
GGAGAUUCUCCAUAACCUGTT against Rnf135 2.29
GGCCAACUUUUUUCACCCATT against Git1 -2.19
GGACCUGAAGGCUGAAAUUTT against Ing4 3.08
GGAGAGACUCAGGAGUUUUTT against Rnd2 2.74
CGUGCUUAGCAAUCUGAAUTT against Bcl6b 2.44
GGCCAGACAAAUGAUGCCATT against Slc25a30 -3.04
GGUUCUAUAGGGCUCCGAATT against Tmem179b 4.23
CCAACUUCAAAACUAUCGUTT against Trp53bp1 2.19
CCAUGAGAACCUGAUGAAUTT against Pag1 -2.38
GCGUGUAGGAAUAAUACCUTT against Psmc6 -2.66
